Drawing on patent publication US20190062727A1 (University of Texas, published 2019), this text covers binding for three molecules.

Protein sequences, listed by entry. Tags and fused reporters are not part of them.
UniProt P38532: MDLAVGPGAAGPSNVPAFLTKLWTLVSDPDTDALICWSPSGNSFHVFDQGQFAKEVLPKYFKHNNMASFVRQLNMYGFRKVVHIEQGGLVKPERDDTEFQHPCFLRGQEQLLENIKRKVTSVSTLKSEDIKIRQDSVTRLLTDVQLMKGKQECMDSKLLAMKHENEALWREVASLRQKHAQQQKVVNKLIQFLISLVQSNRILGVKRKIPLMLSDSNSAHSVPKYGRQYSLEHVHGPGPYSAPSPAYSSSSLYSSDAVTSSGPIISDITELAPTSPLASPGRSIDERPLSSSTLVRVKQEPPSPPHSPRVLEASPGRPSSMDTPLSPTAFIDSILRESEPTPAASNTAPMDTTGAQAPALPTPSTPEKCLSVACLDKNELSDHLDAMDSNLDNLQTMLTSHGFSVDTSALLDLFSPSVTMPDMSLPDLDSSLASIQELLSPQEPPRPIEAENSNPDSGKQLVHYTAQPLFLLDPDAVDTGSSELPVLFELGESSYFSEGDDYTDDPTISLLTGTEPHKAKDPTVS

Assay [1] addresses p53 (TP53), endogenous protein of mouse embryonic fibroblasts and mouse liver (mouse) (UniProt P02340). The assay can be described thus: proximity ligation assay in mouse liver sections.
Assay [2] concerns the target HSF1 (heat shock factor 1), endogenous protein of mouse embryonic fibroblasts and mouse liver (mouse) (UniProt P38532). The assay can be described thus: co-immunoprecipitation from whole-cell homogenates of wt, p53+/- and p53-/- MEFs.
Assay [3] has the same target. The assay can be described thus: proximity ligation assay in liver sections.

No constants are given. Whether binding was seen depends on the method and setting. Binding seen in cells or lysates may run through a third protein. Some results given as binding are weak or reduced against the parent protein; the word gives no strength.

Take “HSF1 (heat shock factor 1), endogenous protein of mouse embryonic fibroblasts and mouse liver (from UniProt P38532 1-525)”: the binding result in assay [1] is given as “binds”.

B1: Rlip (RALBP1, RLIP76), endogenous protein of mouse embryonic fibroblasts and mouse liver (protein, UniProt Q62172 2-648, looked up)
chain: TECFLPPSSSPSEHRRAEHGSGLTRTPSSEEISPTKFPGLYRTGEPSPPHDVLHEPPDTVSDDDKDHGKKKGKFKKKEKRTEGYAAFQEDSSGDEAESPSKVKRSKGIHVFKKPSFSKKKEKDFKIKEKPKEEKHKEEKHKEEKHKEKKSKDLTAADVVKQWKEKKKKKKPIQEPEVPQMDAPSVKPIFGVPLVDAVERTMMYDGVRLPAVFRECVDYMEKHGMKCEGVYRVSGIKSKVDELKAAYDREESPNLEEYEPNTVASLLKQYLRDLPENLLTKELMPRFEEACGKTTEMEKVQEFQRLLRELPECNHLLLSWLIVHLDHVIAKELETKMNIQNISIVLSPTVQISNRVLYVLFTHVQELFGTVVLKQVTRPLRWSNMATMPTLPETQAGIKEEIRRQEFLLNCLHRDLQGGIKDLSKEERLWEVQRILTALKRKLREAKRQECETKIAQEIASLSKEDVSKEEMNENEEVINILLAQENEILTEQEELLAMEQFLRRQIASEKEEIDRLRAEIAEIQSRQQHGRSETEEYSSDSESESEDEEELQLILEDLQRQNEELEIKNNHLNQAVHEEREAIIELRVQLRLLQMQRAKSEQQPQEEEEPERRGGIGPPPCDGVLEVRVAKEQAKASPSKDRKETPI
For B1, the binding entry in assay [2] is given as “binds”.

B2: p53 (TP53), endogenous protein of mouse embryonic fibroblasts and mouse liver (other, UniProt P02340 1-390, looked up)
chain: MTAMEESQSDISLELPLSQETFSGLWKLLPPEDILPSPHCMDDLLLPQDVEEFFEGPSEALRVSGAPAAQDPVTETPGPVAPAPATPWPLSSFVPSQKTYQGNYGFHLGFLQSGTAKSVMCTYSPPLNKLFCQLAKTCPVQLWVSATPPAGSRVRAMAIYKKSQHMTEVVRRCPHHERCSDGDGLAPPQHLIRVEGNLYPEYLEDRQTFRHSVVVPYEPPEAGSEYTTIHYKYMCNSSCMGGMNRRPILTIITLEDSSGNLLGRDSFEVRVCACPGRDRRTEEENFRKKEVLCPELPPGSAKRALPTCTSASPPQKKKPLDGEYFTLKIRGRKRFEMFRELNEALELKDAHATEESGDSRAHSSYLKTKKGQSTSRHKKTMVKKVGPDSD
notes: Endogenous protein, detected with a mouse monoclonal anti-p53 antibody from Cell Signaling Technology
For the molecule B2, the binding result in assay [3] is reported as “binds”.
